# Measured values as given in doi:10.1101/2025.03.15.643466.
# By UniProt entry, the sequences of proteins in these tests, tags left out.
# UniProt P49841: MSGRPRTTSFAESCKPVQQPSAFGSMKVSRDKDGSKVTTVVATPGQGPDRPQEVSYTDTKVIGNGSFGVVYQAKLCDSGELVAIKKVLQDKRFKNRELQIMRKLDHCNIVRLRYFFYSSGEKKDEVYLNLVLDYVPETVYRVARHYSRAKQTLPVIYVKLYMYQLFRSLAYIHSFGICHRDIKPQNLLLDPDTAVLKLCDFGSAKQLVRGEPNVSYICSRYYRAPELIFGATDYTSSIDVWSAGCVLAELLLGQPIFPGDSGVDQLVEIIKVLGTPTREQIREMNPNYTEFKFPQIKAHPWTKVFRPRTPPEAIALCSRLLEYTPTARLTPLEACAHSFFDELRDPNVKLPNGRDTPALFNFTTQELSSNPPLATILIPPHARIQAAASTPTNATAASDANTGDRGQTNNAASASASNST
# No constants are given. Whether binding was seen depends on the method and setting. Binding seen in cells or lysates may run through a third protein. Some binding calls cover weakened binding; strength is not graded here.
# Target: FLAG-tagged FTO (UniProt Q9C0B1)
# Experiment: co-IP
substance,measurement,value
GSK3β (from UniProt P49841 1-420) (enzyme),binding,binds
